Source: publication PMC11134331, “Cell-active small molecule inhibitors validate the SNM1A DNA repair nuclease as a cancer target” (Chemical Science, 2024)

Biological target: T1, SNM1A (Homo sapiens, UniProt Q6PJP8)
T1 sequence (Q6PJP8 676-1040): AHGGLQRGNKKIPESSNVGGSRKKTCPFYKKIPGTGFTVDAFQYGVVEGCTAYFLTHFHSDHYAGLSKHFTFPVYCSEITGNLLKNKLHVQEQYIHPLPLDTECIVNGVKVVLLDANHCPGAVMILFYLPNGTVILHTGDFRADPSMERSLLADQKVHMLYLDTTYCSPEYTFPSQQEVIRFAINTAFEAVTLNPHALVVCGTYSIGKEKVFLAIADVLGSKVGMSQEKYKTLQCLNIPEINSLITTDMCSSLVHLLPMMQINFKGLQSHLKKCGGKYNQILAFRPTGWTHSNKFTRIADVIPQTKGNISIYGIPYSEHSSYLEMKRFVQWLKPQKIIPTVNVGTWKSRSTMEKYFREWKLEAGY
Details: read-out: IC50 of positive control in ELF screen; SNM1A 0.1 nM; as printed in main text
Description: In brief, the fluorescence-based nuclease assay utilises a chemically modified 20-nucleotide ssDNA substrate with a fluorescein isothiocyanate (FITC) derived 5′-group and an internal black-hole-quencher-1 (BHQ-1), located eight nucleotides distal to the fluorescein group. In the intact substrate the BHQ-1 suppresses fluorescence, however, exonucleolytic digestion of the substrate from the 5′ end by SNM1A uncouples the BHQ-1 and FITC moieties (see Fig. 1D). Spectra were measured every 140 seconds with an increase in fluorescence indicating enzymatic activity by SNM1A (concentration: 0.1 nM).

For CC(=O)OCC1=C(C(=O)O)N2C(=O)[C@@H](N)[C@H]2SC1 [7-ACA, 7-Aminocephalosporanic acid, reference compound], the IC50 was 12.2 µM.
